No constants are given. Whether binding was seen depends on the method and setting. For some assays here: A result given as binding can be weak or reduced; the word gives no strength. Sequences can lack the tags named with a protein. Values belong to the binder of their own block, whether it stands above or below them.
Columns and labels:
[1] = target: LILRB4 (human); assay: flow cytometry on transfected 293T cells
[2] = target: human LAIR1 (human) (UniProt Q6GTX8); assay: flow cytometry on LAIR1-overexpressing 293T cells
[3] = target: human LAIR1 (human) (UniProt Q6GTX8); assay: flow cytometry on LAIR1-transfected 293T cells, anti-FLAG-APC and anti-LAIR1-PE
[4] = target: human LAIR1 (human) (UniProt Q6GTX8); assay: flow cytometry on transfected 293T cells
[5] = target: human LAIR1 (human) (UniProt Q6GTX8); assay: flow cytometry on human cord blood cells

Chains of the proteins cited; added tags and fusions are not shown. Lines headed by an entry give the natural chain unless they say otherwise; changes in a name come on top.
UniProt Q6GTX8: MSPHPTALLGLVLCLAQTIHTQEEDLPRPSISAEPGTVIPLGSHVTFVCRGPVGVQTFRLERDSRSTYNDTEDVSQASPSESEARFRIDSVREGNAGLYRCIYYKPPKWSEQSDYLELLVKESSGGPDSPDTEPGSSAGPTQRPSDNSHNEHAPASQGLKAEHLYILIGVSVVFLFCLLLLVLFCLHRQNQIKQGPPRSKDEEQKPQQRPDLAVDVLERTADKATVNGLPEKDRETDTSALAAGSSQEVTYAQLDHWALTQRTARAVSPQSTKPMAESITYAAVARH

B2: human Angptl-3 with FLAG tag at the C-terminus (ligand, not shown: small tags and cut ends)
chain: DQDNSSFDSLSPEPKSRFAMLDDVKILANGLLQLGHGLKDFVHKTKGQINDIFQKLNIFDQSFYDLSLQTSEIKEEEKELRRTTYKLQVKNEEVKNMSLELNSKLESLLEEKILLQQKVKYLEEQLTNLIQNQPETPEHPEVTSLKTFVEKQDNSIKDLLQTVEDQYKQLNQQHSQIKEIENQLRRTSIQEPTEISLSSKPRAPRTTPFLQLNEIRNVKHDGIPAECTTIYNRGEHTSGMYAIRPSNSQVFHVYCDVISGSPWTLIQHRIDGSQNFNETWENYKYGFGRLDGEFWLGLEKIYSIVKQSNYVLRIELEDWKDNKHYIEYSFYLGNHETNYTLHLVAITGNVPNAIPENKDLVFSTWDHKAKGHFNCPEGYSGGWWWHDECGENNLNGKYNKPRAKSKPERRRGLSWKSQNGRLYSIKSTKMLIHPTDSESFE
- binding [1]: no binding

B3: human Angptl-2 with FLAG tag at the C-terminus, mammalian-expressed (ligand, not shown: small tags and cut ends)
chain: QEDGFEGTEEGSPREFIYLNRYKRAGESQDKCTYTFIVPQQRVTGAICVNSKEPEVLLENRVHKQELELLNNELLKQKRQIETLQQLVEVDGGIVSEVKLLRKESRNMNSRVTQLYMQLLHEIIRKRDNALELSQLENRILNQTADMLQLASKYKDLEHKYQHLATLAHNQSEIIAQLEEHCQRVPSARPVPQPPPAAPPRVYQPPTYNRIINQISTNEIQSDQNLKVLPPPLPTMPTLTSLPSSTDKPSGPWRDCLQALEDGHDTSSIYLVKPENTNRLMQVWCDQRHDPGGWTVIQRRLDGSVNFFRNWETYKQGFGNIDGEYWLGLENIYWLTNQGNYKLLVTMEDWSGRKVFAEYASFRLEPESEYYKLRLGRYHGNAGDSFTWHNGKQFTTLDRDHDVYTGNCAHYQKGGWWYNACAHSNLNGVWYRGGHYRSRYQDGVYWAEFRGGSYSLKKVVMMIRPNPNTFH
- binding [1]: no binding

B5: human Angptl-1 with FLAG tag at the C-terminus (ligand, not shown: small tags and cut ends)
chain: GQFKIKKINQRRYPRATDGKEEAKKCAYTFLVPEQRITGPICVNTKGQDASTIKDMITRMDLENLKDVLSRQKREIDVLQLVVDVDGNIVNEVKLLRKESRNMNSRVTQLYMQLLHEIIRKRDNSLELSQLENKILNVTTEMLKMATRYRELEVKYASLTDLVNNQSVMITLLEEQCLRIFSRQDTHVSPPLVQVVPQHIPNSQQYTPGLLGGNEIQRDPGYPRDLMPPPDLATSPTKSPFKIPPVTFINEGPFKDCQQAKEAGHSVSGIYMIKPENSNGPMQLWCENSLDPGGWTVIQKRTDGSVNFFRNWENYKKGFGNIDGEYWLGLENIYMLSNQDNYKLLIELEDWSDKKVYAEYSSFRLEPESEFYRLRLGTYQGNAGDSMMWHNGKQFTTLDRDKDMYAGNCAHFHKGGWWYNACAHSNLNGVWYRGGHYRSKHQDGIFWAEYRGGSYSLRAVQMMIKPID
- binding [2]: binds
- binding [3]: binds
- binding [1]: no binding
- binding [4]: binds
- binding [5]: binds

B6: human Angptl-4 with FLAG tag at the C-terminus (ligand, not shown: small tags and cut ends)
chain: GPVQSKSPRFASWDEMNVLAHGLLQLGQGLREHAERTRSQLSALERRLSACGSACQGTEGSTDLPLAPESRVDPEVLHSLQTQLKAQNSRIQQLFHKVAQQQRHLEKQHLRIQHLQSQFGLLDHKHLDHEVAKPARRKRLPEMAQPVDPAHNVSRLHRLPRDCQELFQVGERQSGLFEIQPQGSPPFLVNCKMTSDGGWTVIQRRHDGSVDFNRPWEAYKAGFGDPHGEFWLGLEKVHSITGDRNSRLAVQLRDWDGNAELLQFSVHLGGEDTAYSLQLTAPVAGQLGATTVPPSGLSVPFSTWDQDHDLRRDKNCAKSLSGGWWFGTCSHSNLNGQYFRSIPQQRQKLKKGIFWKTWRGRYYPLQATTMLIQPMAAEAAS
- binding [1]: no binding

The remaining lines, values ahead:

- binding [1]: no binding
B1: human Angptl-6 with FLAG tag at the C-terminus (ligand, not shown: small tags and cut ends)
chain: RAGAPRCTYTFVLPPQKFTGAVCWSGPASTRATPEAANASELAALRMRVGRHEELLRELQRLAAADGAVAGEVRALRKESRGLSARLGQLRAQLQHEAGPGAGPGADLGAEPAAALALLGERVLNASAEAQRAAARFHQLDVKFRELAQLVTQQSSLIARLERLCPGGAGGQQQVLPPPPLVPVVPVRLVGSTSDTSRMLDPAPEPQRDQTQRQQEPMASPMPAGHPAVPTKPVGPWQDCAEARQAGHEQSGVYELRVGRHVVSVWCEQQLEGGGWTVIQRRQDGSVNFFTTWQHYKAGFGRPDGEYWLGLEPVYQLTSRGDHELLVLLEDWGGRGARAHYDGFSLEPESDHYRLRLGQYHGDAGDSLSWHNDKPFSTVDRDRDSYSGNCALYQRGGWWYHACAHSNLNGVWHHGGHYRSRYQDGVYWAEFRGGAYSLRKAAMLIRPLKL

- binding [2]: binds
- binding [3]: binds
- binding [1]: no binding
- binding [4]: binds
- binding [5]: binds
B4: human Angptl-7 with FLAG tag at the C-terminus (ligand, not shown: small tags and cut ends)
chain: QKLSKHKTPAQPQLKAANCCEEVKELKAQVANLSSLLSELNKKQERDWVSVVMQVMELESNSKRMESRLTDAESKYSEMNNQIDIMQLQAAQTVTQTSADAIYDCSSLYQKNYRISGVYKLPPDDFLGSPELEVFCDMETSGGGWTIIQRRKSGLVSFYRDWKQYKQGFGSIRGDFWLGNEHIHRLSRQPTRLRVEMEDWEGNLRYAEYSHFVLGNELNSYRLFLGNYTGNVGNDALQYHNNTAFSTKDKDNDNCLDKCAQLRKGGYWYNCCTDSNLNGVYYRLGEHNKHLDGITWYGWHGSTYSLKRVEMKIRPEDFKP
